Values of other authors in patent US6846659B2, “Isolation and bacterial expression of a sesquiterpene synthase cDNA clone from peppermint (Mentha x piperita, L.) that produces the aphid alarm pheromone (E)-β-farnesene” (Washington State University Research Foundation, priority 1997, dated 2005).
At least one compound was matched to its structure with a doubt left.

Tested on: (E)-β-farnesene synthase from maritime pine
Settings: enzyme from maritime pine; read-out: Km value for FDP; cited from earlier work

Question: With `CC(C)=CCC/C(C)=C/CC/C(C)=C/CO[P@@](=O)(O)OP(=O)(O)O` (stereo in doubt) [FDP, farnesyl diphosphate] as the compound, how does the Km read?
Answer: The Km was 5 µM.
